PubChem BioAssay AID686943 – Drosophila RNAi Screening Center | 2013

Test: 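Knockdowns that increase or decrease active ERK after insulin receptor stimulation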 (primary screen)
Cell system: Drosophila S2R+ haemocyte-like cells expressing YFP-tagged ERK (Rolled)
Reagents: long dsRNA against Drosophila genes
Conditions: insulin stimulation versus unstimulated cells; dose and duration not given
Read-out: 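Antibody staining for doubly phosphorylated ERK divided by ERK-YFP signal, as plate z-scores, in insulin-treated and untreated cells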
Reading the numbers: replicate 1, z-score of dpERK with insulin: higher = more active ERK per ERK-YFP after insulin
In all, the deposit lists about 23,000 reagents; this is an unselected part of those with a known target gene and a result. 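Extra replicates exist only for a retested subset of genes; insulin dose and duration not given; both raised and lowered dpERK matter.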 Not all columns of the deposit are shown. Not stated in the record: the amount of reagent, the time to read-out.

gene,DRSC id,"replicate 1, z-score of dpERK with insulin"
CG32374,DRSC10986,0.71
Gr85a,DRSC12760,-0.3
IleRS-m,DRSC10506,0.87
Mtmr6,DRSC04046,0.29
CG1791,DRSC18141,0.13
cocoon,DRSC10916,-0.4
Cpr92A,DRSC16000,1.93
Sirt4,DRSC18290,-0.21
fwe,DRSC09398,0.46
fwe,DRSC10594,0.5
fwe,DRSC21400,-1.21
CG10164,DRSC14197,0.24
Gyf,DRSC17202,0.06
CanB,DRSC18449,-0.03
Msp300,DRSC00854,-1.48
Msp300,DRSC00856,-0.24
Msp300,DRSC00857,0.31
Msp300,DRSC00858,-0.22
Msp300,DRSC02360,0.61
Msp300,DRSC03369,0.87
Msp300,DRSC03370,0.23
CG2129,DRSC18209,-0.4
or,DRSC04329,1.25
CG33284,DRSC22905,0.16
pum,DRSC12722,0.79
pum,DRSC12726,2
pum,DRSC17037,0.88
pum,DRSC17038,0.08
pum,DRSC22758,0.47
pum,DRSC22794,0.17
CG3199,DRSC15467,-0.01
CG7497,DRSC10857,-0.86
IRSp53,DRSC10891,-0.83
CG13010,DRSC19529,-1.3
Dlip2,DRSC12346,0.78
Eaf,DRSC05050,-0.09
Eaf,DRSC06052,0.97
Eaf,DRSC22028,0.28
Tep3,DRSC03452,-0.69
